Results taken from paper PMC12264102.
No constants are given. Whether binding was seen depends on the method and setting. In cells and extracts the contact can be indirect. A yes stands for co-enrichment or nearness to the bait. Other partners may have been found.

Target: T1, OTUD1 (bait of the IP coupled with MS) (UniProt Q5VV17)
T1 sequence: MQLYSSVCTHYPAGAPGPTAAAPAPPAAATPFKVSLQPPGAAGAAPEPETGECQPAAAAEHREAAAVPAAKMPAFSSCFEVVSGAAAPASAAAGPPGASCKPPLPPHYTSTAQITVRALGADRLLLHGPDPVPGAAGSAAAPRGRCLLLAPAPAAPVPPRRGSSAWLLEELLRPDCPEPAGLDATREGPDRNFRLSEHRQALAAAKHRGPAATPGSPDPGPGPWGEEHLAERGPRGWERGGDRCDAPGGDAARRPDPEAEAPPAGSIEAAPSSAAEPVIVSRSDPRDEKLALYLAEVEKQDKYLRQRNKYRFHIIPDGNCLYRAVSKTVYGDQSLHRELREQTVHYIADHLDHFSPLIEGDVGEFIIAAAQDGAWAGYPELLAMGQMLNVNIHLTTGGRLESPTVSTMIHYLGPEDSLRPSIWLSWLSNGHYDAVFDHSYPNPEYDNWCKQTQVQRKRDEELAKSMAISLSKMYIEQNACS
Experiment: affinity purification with mass spectrometry; IP of OTUD1 from sonicated cell lysate (IP lysis buffer), 3 ug antibody overnight at 4 °C, Protein A/G magnetic beads, SDS-PAGE, Coomassie staining, MS; cells and antibody not stated

binding: binds
B1: SLC25A11 (found by MS in the OTUD1 immunoprecipitate) (protein, UniProt Q02978 1-314)
chain: MAATASAGAGGIDGKPRTSPKSVKFLFGGLAGMGATVFVQPLDLVKNRMQLSGEGAKTREYKTSFHALTSILKAEGLRGIYTGLSAGLLRQATYTTTRLGIYTVLFERLTGADGTPPGFLLKAVIGMTAGATGAFVGTPAEVALIRMTADGRLPADQRRGYKNVFNALIRITREEGVLTLWRGCIPTMARAVVVNAAQLASYSQSKQFLLDSGYFSDNILCHFCASMISGLVTTAASMPVDIAKTRIQNMRMIDGKPEYKNGLDVLFKVVRYEGFFSLWKGFTPYYARLGPHTVLTFIFLEQMNKAYKRLFLSG
